According to PMC11076500, “Impact of distinct FG nucleoporin repeats on Nup98 self-association” (Nature Communications, 2024):
These are yes or no findings as the source states them, for the method shown. Some binding calls cover weakened binding; strength is not graded here. Values belong to the binder of their own block, whether it stands above or below them.

What was measured:
Test in all cases: dynamic light scattering; pH 3, 2.5 μM protein in 50 mM sodium phosphate, 1 mM TCEP, incubated 30 minutes at 65 °C before measurement, 25 °C; both purified
[1] = target: FG-repeat domain of human Nup98 (Nup98^FG; residues 1-384), wild type (human) (UniProt P52948)
[2] = target: Nup98^FG F102S mutant (human) (UniProt P52948)
[3] = target: Nup98^FG F102S/F319S double mutant (human) (UniProt P52948)
[4] = target: Nup98^FG F319S mutant (human) (UniProt P52948)
[5] = target: Nup98^FG F228S mutant (human) (UniProt P52948)

B1: FG-repeat domain of human Nup98 (Nup98^FG; residues 1-384), wild type (protein)
chain: MFNKSFGTPFGGGTGGFGTTSTFGQNTGFGTTSGGAFGTSAFGSSNNTGGLFGNSQTKPGGLFGTSSFSQPATSTSTGFGFGTSTGTANTLFGTASTGTSLFSSQNNAFAQNKPTGFGNFGTSTSSGGLFGTTNTTSNPFGSTSGSLFGPSSFTAAPTGTTIKFNPPTGTDTMVKAGVSTNISTKHQCITAMKEYESKSLEELRLEDYQANRKGPQNQVGAGTTTGLFGSSPATSSATGLFSSSTTNSGFAYGQNKTAFGTSTTGFGTNPGGLFGQQNQQTTSLFSKPFGQATTTQNTGFSFGNTSTIGQPSTNTMGLFGVTQASQPGGLFGTATNTSTGTAFGTGTGLFGQTNTGFGAVGSTLFGNNKLTTFGSSTTSAPSFG
binding [1]: binds weakly

B3: Nup98^FG F102S/F319S double mutant (protein)
chain: MFNKSFGTPFGGGTGGFGTTSTFGQNTGFGTTSGGAFGTSAFGSSNNTGGLFGNSQTKPGGLFGTSSFSQPATSTSTGFGFGTSTGTANTLFGTASTGTSLSSSQNNAFAQNKPTGFGNFGTSTSSGGLFGTTNTTSNPFGSTSGSLFGPSSFTAAPTGTTIKFNPPTGTDTMVKAGVSTNISTKHQCITAMKEYESKSLEELRLEDYQANRKGPQNQVGAGTTTGLFGSSPATSSATGLFSSSTTNSGFAYGQNKTAFGTSTTGFGTNPGGLFGQQNQQTTSLFSKPFGQATTTQNTGFSFGNTSTIGQPSTNTMGLSGVTQASQPGGLFGTATNTSTGTAFGTGTGLFGQTNTGFGAVGSTLFGNNKLTTFGSSTTSAPSFG
binding [3]: no binding (condition: at pH 3 (2.5 μM protein))

B4: Nup98^FG F319S mutant (protein)
chain: MFNKSFGTPFGGGTGGFGTTSTFGQNTGFGTTSGGAFGTSAFGSSNNTGGLFGNSQTKPGGLFGTSSFSQPATSTSTGFGFGTSTGTANTLFGTASTGTSLFSSQNNAFAQNKPTGFGNFGTSTSSGGLFGTTNTTSNPFGSTSGSLFGPSSFTAAPTGTTIKFNPPTGTDTMVKAGVSTNISTKHQCITAMKEYESKSLEELRLEDYQANRKGPQNQVGAGTTTGLFGSSPATSSATGLFSSSTTNSGFAYGQNKTAFGTSTTGFGTNPGGLFGQQNQQTTSLFSKPFGQATTTQNTGFSFGNTSTIGQPSTNTMGLSGVTQASQPGGLFGTATNTSTGTAFGTGTGLFGQTNTGFGAVGSTLFGNNKLTTFGSSTTSAPSFG
binding [4]: no binding (condition: at pH 3 (2.5 μM protein))

Results, then the binder that gave them:

binding [2]: binds weakly
B2: Nup98^FG F102S mutant (protein)
chain: MFNKSFGTPFGGGTGGFGTTSTFGQNTGFGTTSGGAFGTSAFGSSNNTGGLFGNSQTKPGGLFGTSSFSQPATSTSTGFGFGTSTGTANTLFGTASTGTSLSSSQNNAFAQNKPTGFGNFGTSTSSGGLFGTTNTTSNPFGSTSGSLFGPSSFTAAPTGTTIKFNPPTGTDTMVKAGVSTNISTKHQCITAMKEYESKSLEELRLEDYQANRKGPQNQVGAGTTTGLFGSSPATSSATGLFSSSTTNSGFAYGQNKTAFGTSTTGFGTNPGGLFGQQNQQTTSLFSKPFGQATTTQNTGFSFGNTSTIGQPSTNTMGLFGVTQASQPGGLFGTATNTSTGTAFGTGTGLFGQTNTGFGAVGSTLFGNNKLTTFGSSTTSAPSFG

binding [5]: binds weakly
B5: Nup98^FG F228S mutant (protein)
chain: MFNKSFGTPFGGGTGGFGTTSTFGQNTGFGTTSGGAFGTSAFGSSNNTGGLFGNSQTKPGGLFGTSSFSQPATSTSTGFGFGTSTGTANTLFGTASTGTSLFSSQNNAFAQNKPTGFGNFGTSTSSGGLFGTTNTTSNPFGSTSGSLFGPSSFTAAPTGTTIKFNPPTGTDTMVKAGVSTNISTKHQCITAMKEYESKSLEELRLEDYQANRKGPQNQVGAGTTTGLSGSSPATSSATGLFSSSTTNSGFAYGQNKTAFGTSTTGFGTNPGGLFGQQNQQTTSLFSKPFGQATTTQNTGFSFGNTSTIGQPSTNTMGLFGVTQASQPGGLFGTATNTSTGTAFGTGTGLFGQTNTGFGAVGSTLFGNNKLTTFGSSTTSAPSFG
